# Results: paper PMC3361267 (Journal of Medicinal Chemistry, 2012)
# Key:
# OATP1B1 = target: T1, OATP1B1 (Homo sapiens, UniProt Q9Y6L6); settings: without inhibitor
# T1 sequence (Q9Y6L6 1-691): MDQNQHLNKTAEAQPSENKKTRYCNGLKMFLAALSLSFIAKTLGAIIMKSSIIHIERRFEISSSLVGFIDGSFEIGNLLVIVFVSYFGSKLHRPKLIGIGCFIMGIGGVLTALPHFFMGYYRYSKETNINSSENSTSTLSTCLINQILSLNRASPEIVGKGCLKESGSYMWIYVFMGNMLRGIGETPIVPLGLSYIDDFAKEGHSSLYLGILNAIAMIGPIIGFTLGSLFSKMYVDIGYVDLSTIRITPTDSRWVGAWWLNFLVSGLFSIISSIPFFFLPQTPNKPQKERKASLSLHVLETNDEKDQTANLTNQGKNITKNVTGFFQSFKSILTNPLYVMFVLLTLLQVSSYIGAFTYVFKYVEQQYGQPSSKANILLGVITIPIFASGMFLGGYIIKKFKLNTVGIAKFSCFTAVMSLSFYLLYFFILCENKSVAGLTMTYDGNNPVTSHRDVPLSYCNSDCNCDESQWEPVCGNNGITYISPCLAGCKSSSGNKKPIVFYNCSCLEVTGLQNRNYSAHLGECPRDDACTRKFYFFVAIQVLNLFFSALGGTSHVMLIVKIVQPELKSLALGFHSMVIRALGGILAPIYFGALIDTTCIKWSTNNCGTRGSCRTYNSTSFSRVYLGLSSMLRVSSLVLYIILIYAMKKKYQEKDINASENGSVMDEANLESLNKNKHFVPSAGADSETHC
# OATP2B1 [1] = target: T2, OATP2B1 (Homo sapiens, UniProt O94956); settings: without inhibitor
# T2 sequence (O94956 1-709): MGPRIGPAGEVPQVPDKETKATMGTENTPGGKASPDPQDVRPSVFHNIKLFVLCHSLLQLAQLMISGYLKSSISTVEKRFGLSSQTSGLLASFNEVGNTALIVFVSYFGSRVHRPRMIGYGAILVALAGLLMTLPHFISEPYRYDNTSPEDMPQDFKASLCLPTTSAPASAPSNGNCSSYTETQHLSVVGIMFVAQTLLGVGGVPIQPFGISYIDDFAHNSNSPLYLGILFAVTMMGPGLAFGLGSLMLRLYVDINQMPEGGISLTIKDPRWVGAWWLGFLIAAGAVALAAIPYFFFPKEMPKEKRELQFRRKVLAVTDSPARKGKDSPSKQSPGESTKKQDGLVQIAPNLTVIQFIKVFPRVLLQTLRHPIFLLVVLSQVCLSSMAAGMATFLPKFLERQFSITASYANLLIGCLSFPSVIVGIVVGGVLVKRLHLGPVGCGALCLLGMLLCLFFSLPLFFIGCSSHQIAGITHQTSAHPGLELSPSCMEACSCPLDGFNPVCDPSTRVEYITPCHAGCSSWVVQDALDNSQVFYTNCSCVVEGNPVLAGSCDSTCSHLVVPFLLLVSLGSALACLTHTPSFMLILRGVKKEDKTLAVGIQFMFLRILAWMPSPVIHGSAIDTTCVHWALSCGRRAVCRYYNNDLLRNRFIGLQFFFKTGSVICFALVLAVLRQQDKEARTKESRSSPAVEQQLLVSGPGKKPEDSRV
# OATP2B1 [2] = target: T2, OATP2B1; test: Transport kinetics of substrate uptake in OATP2B1-HEK293 cells; format: cell-based; settings: OATP2B1 mediated uptake
# [3] = cited from earlier work
smiles,measurement,setting,value
"CC(C)c1c(C(=O)Nc2ccccc2)c(-c2ccccc2)c(-c2ccc(F)cc2)n1CC[C@@H](O)C[C@@H](O)CC(=O)O [atorvastatin, Atorvastatin]",OATP1B1 contribution to the overall uptake CL of atorvastatin,OATP1B1,52%
same,"OATP1B1 predicted CLint,uptake of atorvastatin","OATP1B1; human liver in vivo, extrapolated with MTA",450 μL/min/g liver
same,OATP2B1 contribution to the overall uptake CL of atorvastatin,OATP2B1 [1],6%
same,Km,OATP2B1 [2],2840 ± 1630 nM
same,Vmax,OATP2B1 [2],24.27 ± 8.12 pmol/mg protein/min
same,"Cmax,unbound",[3],2 nM
